Data from PMC8126939, “The TBC1D31/praja2 complex controls primary ciliogenesis through PKA‐directed OFD1 ubiquitylation” (The EMBO Journal, 2021).
No constants are given. Whether binding was seen depends on the method and setting. Where a sequence is shown, tags or fusion partners need not be part of it.

Target: T1, GST-praja2_(590–630) (human) (UniProt O43164)
T1 sequence (chain, fluorescent dye on primary amines (NHS-ester labelling)): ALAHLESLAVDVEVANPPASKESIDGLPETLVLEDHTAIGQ
Assay: MST; Monolith NT 115; GST-praja2 fragments labelled with NHS-ester dye, TBC1D31 peptides titrated (16-point 1:1 dilution); 25°C, 20 mM NaP, 200 mM NaCl, 1 mM DTT, 0.05% Tween-20, pH 7.4; both purified

B1: peptide of the C-terminus segment of TBC1D31 (peptide)
peptide: WDTTGQNLIKKVRNLRQRLTARARHRCQTPHLLAA
notes: TBC1D31, human, C-terminus segment; also called WA35 TBC1D31; wild-type TBC1D31 peptide; source: synthetic peptide (bought: Shanghai Apeptide Co., Ltd)
binding: no binding (tested: 500 µM)
